{"source": "the supplement of paper PMC8256030", "note": "Values joined by “and” are separate entries in the source; they are usually repeats but may differ in a detail not shown here. Equal values may be shown once. Where a name gives a salt, the structure may show the parent alone. Some of the results follow. This data set is noisy: repeats of one test often differ as much as different tests do.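 HEK293T cells were given each compound shortly before transfection with a reporter in which red mCherry is followed by the SARS-CoV-2 frameshift element and then GFP in the −1 frame, so GFP appears only after frameshifting.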", "data": [{"tested_on": "HEK293T", "assay": "percent viability (nuclei count) relative to control; higher = more viable cells", "conditions": "10 µM; 24 h", "values": [{"molecule": "COC(c1ccccc1)(c1ccccc1)[C@H](Oc1nc(C)cc(C)n1)C(=O)O", "note": "[ambrisentan]", "percent viability": "215%"}, {"molecule": "CC(=O)Nc1c(I)cc(I)c(C(=O)O)c1I", "percent viability": "233%"}, {"molecule": "COc1ccc(CN(CCN(C)C)c2ccccn2)cc1", "note": "[mepyramine]", "percent viability": "102% and 285%"}, {"molecule": "CC(=O)O[C@]1(C(C)=O)CC[C@H]2[C@@H]3C=C(Cl)C4=CC(=O)CC[C@]4(C)[C@H]3CC[C@@]21C", "note": "[Chlormadinone Acetate]", "percent viability": "73.9%"}, {"molecule": "NC(N)=NCCCC(N)C(=O)O", "note": "(centres undefined)", "percent viability": "181%"}, {"molecule": "O=C(O)CCCc1ccccc1", "note": "[Sodium Phenylbutyrate]", "percent viability": "253%"}, {"molecule": "Nc1ncnc(Nc2ccccc2)n1", "note": "[amanozine]", "percent viability": "32.7%"}, {"molecule": "Cn1c(NCCN(CCO)CCCc2ccc([N+](=O)[O-])cc2)cc(=O)n(C)c1=O", "note": "[nifekalant]", "percent viability": "113%"}, {"molecule": "CC[C@H](C)[C@H](NC(=O)[C@H](Cc1ccccc1)NC(=O)[C@H](C)NC(=O)[C@H](CC(=O)O)NC(=O)[C@H](CCCCN)NC(=O)[C@H](CO)NC(=O)[C@@H]1CCCN1C(=O)[C@@H]1CCC(=O)N1)C(=O)NCC(=O)N[C@@H](CC(C)C)C(=O)N[C@@H](CCSC)C(N)=O", "note": "[eledoisin]", "percent viability": "260%"}, {"molecule": "CCOCC(O)COc1ccc(NC(=O)CC[S+](C)C)cc1", "note": "(centres undefined) [suplatast tosilate]", "percent viability": "226%"}, {"molecule": "Cc1cc(-n2nc3ccc(Cl)cc3n2)c(O)c(C(C)(C)C)c1", "note": "[bumetrizole]", "percent viability": "149%"}, {"molecule": "Nc1nc(O)c2ncn(CCC(CO)CO)c2n1", "note": "[Penciclovir]", "percent viability": "259%"}, {"molecule": "CS(=O)(=O)c1ccc2c(c1)N(CCCN1CCC(C(N)=O)CC1)c1ccccc1S2", "note": "[metopimazine]", "percent viability": "165%"}, {"molecule": "N[C@@H](Cc1ccc(O)c(O)c1)C(=O)O", "note": "[levodopa]", "percent viability": "93.4% and 106%"}, {"molecule": "O=C1NS(=O)(=O)c2ccccc21", "percent viability": "286%"}, {"molecule": "CCCCCCCCCCCCCCC[C@H](O)[C@@H](N)CO", "note": "[safingol]", "percent viability": "148%"}, {"molecule": "Cc1scc2c1N(C(=O)CN1CCN(C)CC1)c1ccccc1NC2=O", "note": "[telenzepine]", "percent viability": "151%"}, {"molecule": "CCN(CC)CC#CCOC(=O)C(O)(c1ccccc1)C1CCCCC1", "note": "(centres undefined) [oxybutynin]", "percent viability": "271%"}, {"molecule": "c1ccc2c(c1)cc1n2CCCNC1", "note": "[azepindole]", "percent viability": "18.6%"}, {"molecule": "CCN(CC)CCNC(=O)COc1ccc(OC)cc1", "percent viability": "377%"}, {"molecule": "COC(=O)[C@H]1[C@H]2C[C@@H]3c4[nH]c5cc(OC)ccc5c4CCN3C[C@H]2C[C@H](OC)[C@@H]1OC", "note": "[metoserpate]", "percent viability": "66.3%"}, {"molecule": "C[C@H]1O[C@@H](n2cc(F)c(=O)[nH]c2=O)[C@H](O)[C@@H]1O", "note": "[doxifluridine]", "percent viability": "177%"}, {"molecule": "CC(=O)[C@@]1(O)[C@H](O)C[C@H]2[C@@H]3CCC4=CC(=O)CC[C@]4(C)[C@H]3CC[C@@]21C", "note": "[algestone]", "percent viability": "147%"}, {"molecule": "CCCCCCCCCCCCCCCCCCCCCCO", "percent viability": "192%"}, {"molecule": "CCCc1nc(C)c2c(=O)nc(-c3cc(S(=O)(=O)N4CCN(CC)CC4)ccc3OCC)[nH]n12", "percent viability": "168%"}, {"molecule": "CCN(CC)CCOC(=O)c1ccc(N)cc1Cl", "note": "[chloroprocaine]", "percent viability": "252%"}, {"molecule": "COC(=O)/C=C/C(=O)OC", "percent viability": "233%"}, {"molecule": "CC(C)(C)NC[C@H](O)COc1nsnc1N1CCOCC1", "note": "[(S)-Timolol maleate]", "percent viability": "243%"}, {"molecule": "Cc1cc(Nc2ncc(Cl)c(Nc3ccccc3S(=O)(=O)C(C)C)n2)c(OC(C)C)cc1C1CCNCC1", "note": "[Ceritinib]", "percent viability": "141%"}, {"molecule": "C[C@]12CC[C@@H]3c4ccc(OC(=O)c5ccccc5)cc4CC[C@H]3[C@@H]1CC[C@@H]2O", "note": "[estradiol benzoate]", "percent viability": "191%"}, {"molecule": "CCOc1ccc(NC(C)=O)cc1", "note": "[phenacetin]", "percent viability": "166%"}, {"molecule": "CCOC(=O)N1c2ccc(C(F)(F)F)cc2[C@@H](N(Cc2cc(C(F)(F)F)cc(C(F)(F)F)c2)C(=O)OC)C[C@H]1CC", "note": "[torcetrapib]", "percent viability": "152%"}, {"molecule": "Cn1c(=O)c2c(ncn2C)n(C)c1=O", "note": "[Caffeine]", "percent viability": "382%"}, {"molecule": "Nc1nc(=O)[nH]cc1F", "note": "[flucytosine]", "percent viability": "258%"}, {"molecule": "CNS(=O)(=O)Cc1ccc2[nH]cc(CCCN3CCN(c4ncncc4OC)CC3)c2c1", "note": "[avitriptan]", "percent viability": "80%"}, {"molecule": "C[N+]1(C)[C@@H]2C[C@@H](OC(=O)C(O)(c3cccs3)c3cccs3)C[C@H]1[C@@H]1O[C@@H]12", "note": "[Spiriva]", "percent viability": "42.9%"}, {"molecule": "Oc1c(Cl)cc(Cl)c(Cl)c1Cc1c(O)c(Cl)cc(Cl)c1Cl", "note": "[hexachlorophene]", "percent viability": "73.9%"}, {"molecule": "COc1c(-c2ccc3cc(NS(C)(=O)=O)ccc3c2)cc(-n2ccc(=O)[nH]c2=O)cc1C(C)(C)C", "note": "[Dasabuvir]", "percent viability": "285%"}, {"molecule": "CCc1c(C)[nH]c2c1C(=O)C(CN1CCOCC1)CC2", "note": "(centres undefined) [molindone]", "percent viability": "249%"}]}]}
